Laboratory results as given in PubChem BioAssay (EPA / NIEHS).
Several values for one entry are separate records, joined by “and”; a condition that tells them apart may be missing. Identical values can stand only once. The shares of active, inactive and inconclusive entries below differ from those in the screen. For some assays here: Potencies beside an inconclusive call are fits to weak or partial responses and may not hold up. Activity calls are given as the source filed them. The calls were made as follows: active = hit-call score of the fitted dose curve at least 0.9, where 1 is the maximum; inconclusive = response in the unintended direction; inactive = score below 0.9.

Sequences of proteins named here, by UniProt entry; tags and fusion partners are left off. A change or cut given only in a name is not applied to a line headed by its entry.
UniProt P20789, whole entry, looked up: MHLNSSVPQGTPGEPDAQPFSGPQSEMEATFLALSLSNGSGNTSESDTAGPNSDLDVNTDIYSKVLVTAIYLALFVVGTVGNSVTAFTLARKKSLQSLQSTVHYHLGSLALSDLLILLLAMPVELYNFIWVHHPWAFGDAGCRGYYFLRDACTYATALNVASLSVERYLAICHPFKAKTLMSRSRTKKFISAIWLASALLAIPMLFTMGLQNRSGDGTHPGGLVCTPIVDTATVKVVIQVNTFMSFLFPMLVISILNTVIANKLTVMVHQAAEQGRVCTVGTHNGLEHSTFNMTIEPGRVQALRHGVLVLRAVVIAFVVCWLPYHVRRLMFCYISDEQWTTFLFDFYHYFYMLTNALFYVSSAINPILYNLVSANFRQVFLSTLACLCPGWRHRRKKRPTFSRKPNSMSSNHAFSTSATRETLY
UniProt P14600, whole entry, looked up: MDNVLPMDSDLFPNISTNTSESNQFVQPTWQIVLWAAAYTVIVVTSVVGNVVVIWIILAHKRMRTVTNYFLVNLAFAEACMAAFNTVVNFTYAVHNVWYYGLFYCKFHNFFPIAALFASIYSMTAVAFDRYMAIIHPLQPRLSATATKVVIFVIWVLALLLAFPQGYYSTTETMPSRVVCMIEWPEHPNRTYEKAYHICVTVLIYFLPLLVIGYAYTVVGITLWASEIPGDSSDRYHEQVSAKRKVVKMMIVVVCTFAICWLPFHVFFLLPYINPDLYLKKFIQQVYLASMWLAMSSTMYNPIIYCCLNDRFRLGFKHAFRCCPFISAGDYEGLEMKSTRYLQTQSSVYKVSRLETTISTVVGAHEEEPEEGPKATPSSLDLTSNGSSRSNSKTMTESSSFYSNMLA
UniProt P16177, whole entry, looked up: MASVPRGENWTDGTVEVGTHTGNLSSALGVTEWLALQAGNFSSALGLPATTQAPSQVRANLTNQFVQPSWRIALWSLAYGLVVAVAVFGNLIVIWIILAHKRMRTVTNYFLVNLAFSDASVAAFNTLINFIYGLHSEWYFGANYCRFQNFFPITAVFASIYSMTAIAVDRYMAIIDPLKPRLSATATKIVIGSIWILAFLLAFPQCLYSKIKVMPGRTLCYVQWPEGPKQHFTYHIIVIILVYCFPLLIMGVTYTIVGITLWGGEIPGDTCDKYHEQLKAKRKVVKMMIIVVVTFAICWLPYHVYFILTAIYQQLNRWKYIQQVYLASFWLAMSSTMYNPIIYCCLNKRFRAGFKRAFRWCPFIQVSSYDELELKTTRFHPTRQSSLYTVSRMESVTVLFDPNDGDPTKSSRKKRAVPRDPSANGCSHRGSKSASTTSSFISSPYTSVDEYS
UniProt P33535, whole entry, looked up: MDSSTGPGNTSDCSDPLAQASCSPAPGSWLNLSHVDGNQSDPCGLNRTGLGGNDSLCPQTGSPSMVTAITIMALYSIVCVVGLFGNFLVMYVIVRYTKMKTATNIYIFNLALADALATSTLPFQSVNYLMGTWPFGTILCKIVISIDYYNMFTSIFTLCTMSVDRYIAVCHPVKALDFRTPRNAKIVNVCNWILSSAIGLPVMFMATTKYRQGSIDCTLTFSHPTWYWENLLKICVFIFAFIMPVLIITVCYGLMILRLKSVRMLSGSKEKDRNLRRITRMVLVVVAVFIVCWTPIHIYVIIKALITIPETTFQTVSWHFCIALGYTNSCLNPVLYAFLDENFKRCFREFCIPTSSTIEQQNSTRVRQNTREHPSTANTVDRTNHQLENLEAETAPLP
UniProt Q01717: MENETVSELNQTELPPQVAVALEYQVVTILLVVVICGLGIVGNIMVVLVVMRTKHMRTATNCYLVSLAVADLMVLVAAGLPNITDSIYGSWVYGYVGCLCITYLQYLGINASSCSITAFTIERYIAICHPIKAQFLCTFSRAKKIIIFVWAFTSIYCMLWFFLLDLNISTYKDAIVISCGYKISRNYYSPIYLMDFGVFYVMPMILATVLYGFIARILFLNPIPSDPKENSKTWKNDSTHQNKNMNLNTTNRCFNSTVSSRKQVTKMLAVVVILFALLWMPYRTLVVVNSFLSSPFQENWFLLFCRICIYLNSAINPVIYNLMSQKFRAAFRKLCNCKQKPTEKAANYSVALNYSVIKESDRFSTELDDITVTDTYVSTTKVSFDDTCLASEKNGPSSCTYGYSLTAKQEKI
UniProt P28646: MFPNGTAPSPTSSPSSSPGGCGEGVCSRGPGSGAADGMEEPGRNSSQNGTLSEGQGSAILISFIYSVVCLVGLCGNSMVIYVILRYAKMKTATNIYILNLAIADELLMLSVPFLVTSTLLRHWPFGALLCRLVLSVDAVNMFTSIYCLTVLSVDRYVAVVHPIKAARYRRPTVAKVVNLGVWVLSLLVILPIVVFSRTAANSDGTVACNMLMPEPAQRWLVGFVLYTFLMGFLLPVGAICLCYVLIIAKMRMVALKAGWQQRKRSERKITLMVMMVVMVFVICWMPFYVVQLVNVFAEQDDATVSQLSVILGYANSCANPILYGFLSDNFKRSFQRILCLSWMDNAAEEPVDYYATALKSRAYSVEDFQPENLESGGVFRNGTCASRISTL
UniProt P08219: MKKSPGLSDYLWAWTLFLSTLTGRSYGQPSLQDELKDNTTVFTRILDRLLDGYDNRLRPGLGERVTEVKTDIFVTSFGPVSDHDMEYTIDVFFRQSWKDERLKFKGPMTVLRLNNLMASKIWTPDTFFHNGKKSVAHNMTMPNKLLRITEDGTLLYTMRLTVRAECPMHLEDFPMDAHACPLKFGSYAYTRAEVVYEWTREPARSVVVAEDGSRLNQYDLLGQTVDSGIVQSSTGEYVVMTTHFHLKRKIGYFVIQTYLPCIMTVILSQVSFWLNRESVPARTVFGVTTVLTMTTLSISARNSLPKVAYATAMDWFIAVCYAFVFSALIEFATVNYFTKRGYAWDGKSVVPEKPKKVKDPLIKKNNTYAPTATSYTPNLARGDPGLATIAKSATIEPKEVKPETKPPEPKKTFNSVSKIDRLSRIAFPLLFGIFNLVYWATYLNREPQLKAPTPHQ
UniProt P30536, whole entry, looked up: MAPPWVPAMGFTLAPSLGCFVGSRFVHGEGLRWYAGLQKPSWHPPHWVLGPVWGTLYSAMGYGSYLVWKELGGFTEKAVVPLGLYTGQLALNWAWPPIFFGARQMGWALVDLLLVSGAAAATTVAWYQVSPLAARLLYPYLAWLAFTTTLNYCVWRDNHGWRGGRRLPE
UniProt Q05941, whole entry, looked up: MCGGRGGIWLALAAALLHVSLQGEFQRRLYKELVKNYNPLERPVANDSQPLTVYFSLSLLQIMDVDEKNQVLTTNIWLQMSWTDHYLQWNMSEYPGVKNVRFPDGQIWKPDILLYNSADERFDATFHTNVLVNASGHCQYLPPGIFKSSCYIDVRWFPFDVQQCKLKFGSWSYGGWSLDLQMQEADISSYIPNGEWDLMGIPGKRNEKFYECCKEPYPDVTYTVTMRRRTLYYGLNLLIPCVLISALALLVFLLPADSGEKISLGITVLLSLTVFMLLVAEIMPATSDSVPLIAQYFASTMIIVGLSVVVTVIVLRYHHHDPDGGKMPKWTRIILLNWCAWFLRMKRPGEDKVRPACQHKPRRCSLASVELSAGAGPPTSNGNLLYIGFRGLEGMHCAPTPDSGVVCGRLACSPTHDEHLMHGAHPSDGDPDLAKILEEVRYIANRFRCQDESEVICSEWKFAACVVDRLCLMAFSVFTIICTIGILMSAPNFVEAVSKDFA
UniProt Q15822: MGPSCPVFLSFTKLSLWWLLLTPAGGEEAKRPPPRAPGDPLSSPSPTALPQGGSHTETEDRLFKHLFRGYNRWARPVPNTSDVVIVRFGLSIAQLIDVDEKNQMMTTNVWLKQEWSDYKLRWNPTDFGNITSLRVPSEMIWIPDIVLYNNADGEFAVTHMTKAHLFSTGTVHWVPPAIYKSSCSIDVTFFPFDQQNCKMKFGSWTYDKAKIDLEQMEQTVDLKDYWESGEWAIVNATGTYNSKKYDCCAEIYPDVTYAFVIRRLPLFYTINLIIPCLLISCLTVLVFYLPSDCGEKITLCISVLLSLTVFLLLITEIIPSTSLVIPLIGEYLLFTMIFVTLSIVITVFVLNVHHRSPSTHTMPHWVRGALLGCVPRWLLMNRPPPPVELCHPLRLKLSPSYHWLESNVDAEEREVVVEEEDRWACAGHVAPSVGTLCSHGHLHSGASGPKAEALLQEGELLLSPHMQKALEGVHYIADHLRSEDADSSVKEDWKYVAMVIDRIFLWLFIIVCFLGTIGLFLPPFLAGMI
UniProt P30560, whole entry, looked up: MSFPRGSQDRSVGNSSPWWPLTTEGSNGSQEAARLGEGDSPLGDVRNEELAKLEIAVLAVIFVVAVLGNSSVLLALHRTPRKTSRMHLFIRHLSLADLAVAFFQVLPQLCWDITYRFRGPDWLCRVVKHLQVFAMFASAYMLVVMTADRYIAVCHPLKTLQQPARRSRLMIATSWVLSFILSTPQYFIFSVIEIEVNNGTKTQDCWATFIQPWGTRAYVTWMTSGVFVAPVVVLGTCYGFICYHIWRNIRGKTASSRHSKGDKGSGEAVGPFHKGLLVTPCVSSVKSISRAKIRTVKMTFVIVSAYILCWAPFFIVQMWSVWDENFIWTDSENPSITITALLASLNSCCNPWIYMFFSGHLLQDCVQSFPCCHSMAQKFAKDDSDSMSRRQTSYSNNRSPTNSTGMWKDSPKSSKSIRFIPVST
UniProt P62813: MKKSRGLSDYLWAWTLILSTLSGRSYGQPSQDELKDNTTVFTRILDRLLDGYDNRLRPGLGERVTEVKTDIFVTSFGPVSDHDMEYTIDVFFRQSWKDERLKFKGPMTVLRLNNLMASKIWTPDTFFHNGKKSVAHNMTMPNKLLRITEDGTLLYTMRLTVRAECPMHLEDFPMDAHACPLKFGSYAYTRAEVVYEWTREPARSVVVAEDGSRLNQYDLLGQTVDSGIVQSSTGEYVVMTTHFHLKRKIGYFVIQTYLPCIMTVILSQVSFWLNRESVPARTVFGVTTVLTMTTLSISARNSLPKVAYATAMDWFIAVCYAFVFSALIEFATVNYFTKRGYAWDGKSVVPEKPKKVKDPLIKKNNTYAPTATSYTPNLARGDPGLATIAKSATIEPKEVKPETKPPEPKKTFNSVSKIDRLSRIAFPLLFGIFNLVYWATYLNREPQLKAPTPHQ

Columns and labels:
[1] = target: rat Neurotensin Receptor (NTS), Ntsr1 (gene 366274) (UniProt P20789); assay: NVS_GPCR_rNTS: NovaScreen (NVS) G Protein-Coupled Receptor Assay for rat Neurotensin Receptor (NTS) (AID 2283308)
In short: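 Single-point duplicates at 25 uM, then concentration series to 50 uM max for hits, measured radioligand displacement on rat forebrain membrane preparations. Bound label counted by filtration scintillation at 1 h; signal loss relative to DMSO fitted.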

[2] = target: rat Neurokinin-1 Receptor (NK1), Tacr1 (gene 24807) (UniProt P14600); assay: NVS_GPCR_rNK1: NovaScreen (NVS) G Protein-Coupled Receptor Assay for rat Neurokinin-1 Receptor (NK1) (AID 2283309)
In short: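 Competitive radioligand binding to NK1 in rat submaxillary membranes, 1 h incubation, filtration and scintillation read-out. Compounds first screened at 25 uM in duplicate, then concentration-response for actives; signal loss relative to DMSO.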

[3] = target: rat Neurokinin-3 Receptor (NK3), Tacr3 (gene 24808) (UniProt P16177); assay: NVS_GPCR_rNK3: NovaScreen (NVS) G Protein-Coupled Receptor Assay for rat Neurokinin-3 Receptor (NK3) (AID 2283310)
In short: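 Filter-based radioligand displacement on rat cortex membrane preparations, read by scintillation 2 h post-dose. Chemicals first tested in duplicate at 25 uM; actives followed up in concentration series with a 50 uM maximum.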

[4] = target: rat Opioid Receptor, Non-selective Binding, Oprm1 (gene 25601) (UniProt P33535); assay: NVS_GPCR_rOpiate_NonSelective: NovaScreen (NVS) G Protein-Coupled Receptor Assay for rat Opioid Receptor, Non-selective Binding (AID 2283318)
In short: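 Filter-based radioligand displacement using rat forebrain membrane preparations, measured 1.5 h post-dosing. Single-concentration duplicate screen at 25 uM, follow-up in concentration series; activity taken as signal loss relative to DMSO.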

[5] = target: rat Thyrotropin Releasing Hormone Receptor (TRH), Trhr (gene 25570) (UniProt Q01717); assay: NVS_GPCR_rTRH: NovaScreen (NVS) G Protein-Coupled Receptor Assay for rat Thyrotropin Releasing Hormone Receptor (TRH) (AID 2283329);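 also: hit means lower bound tracer signal versus DMSO baseline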
In short: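 Rat forebrain membranes; radioligand displacement at TRH receptor by filter-based scintillation counting, read 4 h after dosing. Duplicate single-point screen at 25 uM, actives rerun in concentration series; loss of signal relative to DMSO.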

[6] = NVS_IC_rCaDHPRCh_L: NovaScreen (NVS) Ion Channel Assay for rat Calcium Channel, Type L, Dihydropyridine Site (CaDHPRCh_L) (AID 2283320)
In short: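 Rat cortex membrane preparation; dihydropyridine-site radioligand displacement read 1 h post-dose by filtration and scintillation. Primary single-point screen 25 uM in duplicate, then concentration series to 50 uM maximum; DMSO as negative control.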

[7] = target: rat Glutamate, NMDA Agonist Site (GluNMDA), Grin1 (gene 24408) (UniProt P35439); assay: NVS_LGIC_rGluNMDA_Agonist: NovaScreen (NVS) Ligand-Gated Ion Channel Assay for rat Glutamate, NMDA Agonist Site (GluNMDA) (AID 2283327)
In short: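 Radioligand displacement at the agonist site on rat forebrain membrane preparations, read by filter scintillation after 1 h. Chemicals were first run at 25 uM in duplicate; those passing threshold were titrated to a 50 uM maximum.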

[8] = target: rat Somatostatin Receptor (SST), Sstr1 (gene 25033) (UniProt P28646); assay: NVS_GPCR_rSST: NovaScreen (NVS) G Protein-Coupled Receptor Assay for rat Somatostatin Receptor (SST) (AID 2283314)
In short: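 Single-concentration duplicate screen (25 uM), then concentration-response up to 50 uM for chemicals passing a threshold such as 30% inhibition. Membranes came from rat forebrain. Binding was measured 1 h post-dose by filter radiodetection and scintillation, relative to DMSO.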

[9] = target: bovine Gamma-Aminobutyric Acid Type A Receptor BDZ, alpha 1 site (GABARa1), GABRA1 (gene 780973) (UniProt P08219); assay: NVS_LGIC_bGABARa1: NovaScreen (NVS) Ligand-Gated Ion Channel Assay for bovine Gamma-Aminobutyric Acid Type A Receptor BDZ, alpha 1 site (GABARa1) (AID 2283321)
In short: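 Bovine cortex membrane preparation, benzodiazepine site on GABA-A alpha1; specific radioligand displacement read after 0.75 h by filtration and scintillation. Screen at 25 uM, then singleton titrations up to 50 uM; DMSO baseline.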

[10] = target: human Peripheral-type Benzodiazepine Receptor (PBR), TSPO (gene 706) (UniProt P30536); assay: NVS_MP_hPBR: NovaScreen (NVS) Membrane Protein Assay for human Peripheral-type Benzodiazepine Receptor (PBR) (AID 2283331);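 also: hits reduce radioligand binding relative to DMSO baseline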
In short: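 Cell-free radioligand displacement, human colonic membranes, 1 h exposure. Filter radiodetection read-out. Single-concentration duplicates (25 uM), then concentration-response for actives; DMSO negative control.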

[11] = target: rat Neonicotinoid receptor (NNR), Chrna7 (gene 25302) (UniProt Q05941); assay: NVS_LGIC_rNNR_BungSens: NovaScreen (NVS) Ligand-Gated Ion Channel Assay for rat Neonicotinoid receptor (NNR) (AID 2283315)
In short: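 Rat cortical membrane preparation incubated 2.5 h with tritiated or iodinated radioligand and test chemical. Bound radioactivity was filtered and counted by scintillation, and displacement was analysed against DMSO.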

[12] = target: human Neonicotinoid receptor (NNR), CHRNA2 (gene 1135) (UniProt Q15822); assay: NVS_LGIC_hNNR_NBungSens: NovaScreen (NVS) Ligand-Gated Ion Channel Assay for human Neonicotinoid receptor (NNR) (AID 2283313)
In short: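 Compounds first screened in duplicate at 25 uM, then actives re-tested in single-replicate dose series up to 50 uM. Binding measured as displacement of specific radioligand from neuroblastoma membrane receptors after 2 h, scintillation read on filters.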

[13] = target: Voltage-dependent N-type calcium channel subunit alpha-1B (Rattus norvegicus) (UniProt Q02294); assay: NVS_IC_rCaChN: NovaScreen (NVS) Ion Channel Assay for rat Calcium Channel, Type N (CaChN) (AID 2283317)
[14] = target: rat Vasopressin 1 Receptor (V1), Avpr1a (gene 25107) (UniProt P30560); assay: NVS_GPCR_rV1: NovaScreen (NVS) G Protein-Coupled Receptor Assay for rat Vasopressin 1 Receptor (V1) (AID 2283316)
In short: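 Concentration-response up to 50 uM for chemicals passing a threshold such as 30% inhibition in an initial duplicate 25 uM screen. Displacement of radioligand from rat liver membranes measured after 1.5 h by filtration and scintillation.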

[15] = target: rat Gamma-Aminobutyric Acid Type A Receptor, Non-Selective (GABAR-NonSelective), Gabra1 (gene 29705) (UniProt P62813); assay: NVS_LGIC_rGABAR_NonSelective: NovaScreen (NVS) Ligand-Gated Ion Channel Assay for rat Gamma-Aminobutyric Acid Type A Receptor, Non-Selective (GABAR-NonSelective) (AID 2283326)
In short: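 Compounds were first screened in duplicate at 25 uM, with actives run as singleton concentration series (max 50 uM). Binding of a radioligand to rat whole-brain GABA-A preparation was measured by filtration and scintillation counting after 1 h, DMSO baseline.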

Cn1c(-c2ccccc2)cc(-c2ccccc2)[n+]1C
AC50 [1]: inconclusive: 25 µM
outcome [2]: inactive

COc1cnc(OC)n2nc(NS(=O)(=O)c3c(OCC(F)F)cccc3C(F)(F)F)nc12
AC50 [1]: inconclusive: 46.5 µM
AC50 [3]: inconclusive: 25 µM

CCCCCOC(=O)c1ccccc1C(=O)OCCCCC
AC50 [3]: inconclusive: 9.16 µM

COc1cc(C=O)cc2c1[C@H](COC(N)=O)[C@]1(OC(C)=O)ON2C[C@H]2[C@@H]1N2C(C)=O
AC50 [3]: inconclusive: 0.418 µM
AC50 [4]: inconclusive: 25 µM
AC50 [5]: inconclusive: 25 µM

CCC(C)(CC)c1cc(NC(=O)c2c(OC)cccc2OC)on1
outcome [3]: inactive
outcome [6]: inactive
AC50 [7]: inconclusive: 0.231 µM

Oc1cc(Cl)ccc1Oc1ccc(Cl)cc1Cl
AC50 [8]: active: 18.7 µM
AC50 [9]: inconclusive: 0.226 µM
AC50 [10]: inconclusive: 323 nM and inconclusive: 121 nM
outcome [10]: inactive

N#CC(CCc1ccc(Cl)cc1)(Cn1cncn1)c1ccccc1 (stereo not given)
outcome [11]: inactive

CC1(C)C(C=C(Cl)Cl)C1C(=O)OC(C#N)c1cccc(Oc2ccccc2)c1 (stereo not given)
AC50 [3]: inconclusive: 25 µM
AC50 [7]: inconclusive: 25 µM

CC(C)OC(=O)Nc1cccc(Cl)c1
AC50 [12]: inconclusive: 25 µM
AC50 [8]: inconclusive: 25 µM

Cc1ccc([N+](=O)[O-])cc1C
AC50 [13]: inconclusive: 20.9 µM

CNC(=O)ON=C(SC)C(=O)N(C)C
AC50 [13]: inconclusive: 25 µM

CCCCCCCCCc1ccc(O)cc1
outcome [3]: inactive
AC50 [4]: inconclusive: 25 µM
AC50 [6]: inconclusive: 0.221 µM

CCC(C)(C)C(=O)OC1=C(c2ccc(Cl)cc2Cl)C(=O)OC12CCCCC2
outcome [12]: inactive

CNC(=S)S
AC50 [12]: inconclusive: 25 µM
AC50 [8]: inconclusive: 41.5 µM
AC50 [7]: inconclusive: 6.05 µM
outcome [5]: inactive

CCCCCCCc1ccc(O)cc1
AC50 [3]: inconclusive: 25 µM
outcome [5]: inactive

CCNS(=O)(=O)C(F)(F)C(F)(F)C(F)(F)C(F)(F)C(F)(F)C(F)(F)C(F)(F)C(F)(F)F
AC50 [14]: inconclusive: 24.1 µM

Cc1ccccc1N
AC50 [8]: active: 10.8 µM

COP(=S)(OC)Oc1ccc([N+](=O)[O-])cc1
outcome [11]: inactive

CN1CSC(=S)N(C)C1
AC50 [3]: inconclusive: 0.181 µM
AC50 [15]: inconclusive: 0.0814 µM
outcome [5]: inactive

O=C(N[C@H]1CN2CCC1CC2)c1ccc2c(c1)OCCO2
AC50 [13]: inconclusive: 5.9 µM

Cc1ccccc1OP(=O)(Oc1ccccc1)Oc1ccccc1
AC50 [11]: inconclusive: 1.14 µM

CC(C)C(=O)OCC(C)(C)C(OC(=O)C(C)C)C(C)C (stereo not given)
AC50 [13]: inconclusive: 8.96 µM

O=C(O)COc1nc(Cl)c(Cl)cc1Cl
AC50 [12]: inconclusive: 25 µM

CCOP(=S)(Oc1ccc([N+](=O)[O-])cc1)c1ccccc1 (stereo not given)
AC50 [14]: inconclusive: 1.1 µM

CCCCOC(=O)c1ccccc1C(=O)OCCCC
outcome [13]: inactive
AC50 [4]: inconclusive: 25 µM

N#Cc1cc(Br)c(O)c(Br)c1
AC50 [8]: inconclusive: 2.25 µM
AC50 [9]: inconclusive: 25 µM

CC1(C(=O)Nc2ccc(O)c(Cl)c2Cl)CCCCC1
AC50 [11]: inconclusive: 0.0823 µM

COP(=S)(OC)Oc1ccc(SC)c(C)c1
outcome [11]: inactive

CC12CC1(C)C(=O)N(c1cc(Cl)cc(Cl)c1)C2=O (stereo not given)
AC50 [11]: inconclusive: 0.69 µM
AC50 [5]: inconclusive: 25 µM

NS(=O)(=O)C(F)(F)C(F)(F)C(F)(F)C(F)(F)C(F)(F)C(F)(F)C(F)(F)C(F)(F)F
AC50 [13]: inconclusive: 0.55 µM

CCc1cccc(CC)c1N(COC)C(=O)CCl
AC50 [12]: inconclusive: 25 µM

O=C(O)C1(c2ccc3c(c2)OC[C@H](Cc2ccc(-c4ccccc4)cc2)[C@H]3O)CCCC1
outcome [13]: inactive

O=[N+]([O-])C(Br)(CO)CO
AC50 [8]: inconclusive: 43.6 µM

CNC(=O)Oc1cccc2ccccc12
AC50 [14]: inconclusive: 25 µM

C[C@]12CCC(=O)C=C1CC[C@@H]1[C@@H]2CC[C@]2(C)C(=O)CC[C@@H]12
AC50 [13]: inconclusive: 25 µM
outcome [4]: inactive

OC(c1ccc(Cl)cc1)(c1ccc(Cl)cc1)C(Cl)(Cl)Cl
AC50 [8]: inconclusive: 0.379 µM

O=C(Nc1ccccc1)c1ccccc1I
AC50 [3]: inconclusive: 12.1 µM
AC50 [7]: inconclusive: 25 µM

O=C(O)C1C2CCC(O2)C1C(=O)O (stereo not given)
AC50 [8]: active: 3.96 µM

CC(Cl)CN(C)C (stereo not given)
AC50 [11]: inconclusive: 0.404 µM

CN/C(=N\[N+](=O)[O-])NCc1cnc(Cl)s1
AC50 [12]: active: 10.1 µM
AC50 [11]: active: 25 µM
